Test results from patent US20100278837A1 (University of California, published 2010).

Protein sequences, listed by entry. Tags and fused reporters are not part of them. Chains listed by the source or under a name are the forms on record and can include a tag or linker. Residues count along the entry.
UniProt Q00651, other isoform, or with tags, fused parts or gaps, chain 1 of 2: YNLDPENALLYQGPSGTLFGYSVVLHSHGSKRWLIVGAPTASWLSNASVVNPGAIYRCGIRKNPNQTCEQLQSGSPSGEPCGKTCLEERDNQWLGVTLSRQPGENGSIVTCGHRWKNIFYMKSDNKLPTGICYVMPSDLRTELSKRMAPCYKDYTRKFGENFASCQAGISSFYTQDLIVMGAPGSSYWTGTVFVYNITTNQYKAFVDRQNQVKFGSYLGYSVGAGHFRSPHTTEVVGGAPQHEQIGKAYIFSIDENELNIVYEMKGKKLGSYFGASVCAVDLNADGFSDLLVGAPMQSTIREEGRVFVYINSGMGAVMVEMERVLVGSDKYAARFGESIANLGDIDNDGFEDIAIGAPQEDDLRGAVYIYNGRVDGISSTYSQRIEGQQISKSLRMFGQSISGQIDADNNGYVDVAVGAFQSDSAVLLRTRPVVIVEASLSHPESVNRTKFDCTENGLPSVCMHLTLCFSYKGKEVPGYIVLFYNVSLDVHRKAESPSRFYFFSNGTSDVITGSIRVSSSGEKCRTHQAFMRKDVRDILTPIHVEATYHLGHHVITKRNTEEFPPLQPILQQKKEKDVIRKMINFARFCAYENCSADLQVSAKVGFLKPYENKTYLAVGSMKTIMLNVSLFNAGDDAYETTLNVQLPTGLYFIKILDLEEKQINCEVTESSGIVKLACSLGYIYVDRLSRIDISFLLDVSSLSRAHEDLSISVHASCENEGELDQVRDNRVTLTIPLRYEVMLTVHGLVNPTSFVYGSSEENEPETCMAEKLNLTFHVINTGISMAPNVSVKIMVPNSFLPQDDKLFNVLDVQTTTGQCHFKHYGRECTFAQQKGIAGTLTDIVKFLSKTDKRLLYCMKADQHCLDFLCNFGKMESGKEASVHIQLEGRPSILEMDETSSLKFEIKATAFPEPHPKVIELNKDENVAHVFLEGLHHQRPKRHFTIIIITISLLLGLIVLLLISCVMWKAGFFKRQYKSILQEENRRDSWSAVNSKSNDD
murine integrin α4Y991A β1 of CD11b+ myeloid cells from α4Y991A knockin mice, UniProt P09055, 21-798, chain 2 of 2: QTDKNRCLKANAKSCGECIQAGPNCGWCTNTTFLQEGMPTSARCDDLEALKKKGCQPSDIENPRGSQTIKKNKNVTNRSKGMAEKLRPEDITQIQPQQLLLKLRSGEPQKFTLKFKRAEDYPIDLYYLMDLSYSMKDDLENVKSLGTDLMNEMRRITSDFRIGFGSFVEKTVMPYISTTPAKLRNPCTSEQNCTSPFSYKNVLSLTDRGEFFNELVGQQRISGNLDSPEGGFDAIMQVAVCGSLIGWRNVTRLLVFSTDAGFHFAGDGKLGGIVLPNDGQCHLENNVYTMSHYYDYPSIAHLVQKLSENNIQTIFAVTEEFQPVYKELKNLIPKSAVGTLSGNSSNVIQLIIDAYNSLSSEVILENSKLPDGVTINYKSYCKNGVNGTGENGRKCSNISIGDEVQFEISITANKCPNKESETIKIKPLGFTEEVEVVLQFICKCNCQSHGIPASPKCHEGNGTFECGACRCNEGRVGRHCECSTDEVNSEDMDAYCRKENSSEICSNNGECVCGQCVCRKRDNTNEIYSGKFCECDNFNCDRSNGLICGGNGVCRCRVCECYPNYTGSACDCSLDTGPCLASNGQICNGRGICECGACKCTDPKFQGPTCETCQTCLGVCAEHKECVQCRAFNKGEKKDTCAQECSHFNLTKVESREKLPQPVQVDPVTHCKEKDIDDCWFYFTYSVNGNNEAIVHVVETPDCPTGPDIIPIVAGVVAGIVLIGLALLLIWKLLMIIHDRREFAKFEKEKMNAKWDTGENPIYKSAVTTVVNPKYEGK

Molecular target: T1, murine integrin α4Y991A β1 of CD11b+ myeloid cells from α4Y991A knockin mice (mouse, UniProt Q00651 41-1039; P09055 21-798)
T1 construct: whole, on cells; It may be mature-chain numbering and may not match the precursor entry; also called α4YA; YA
Test: co-immunoprecipitation with PS/2, immunoblot (FIG. 3d)
Method: BM monocytic cells from WT or α4Y991A mice were isolated as described above and treated with either DMEM or TCM for 30 min at 37° C. Cells were rinsed with cold PBS and lysed in Tris-buffered saline containing 1% CHAPS, 20 mM β-glycerophosphate, 1 mM Na₃VO₄, 5 mM NaF, 100 ng/ml microcystin-LR, and protease inhibitor cocktail. Clarified cell lysates were immunoprecipitated as follows: 1 mg total protein was precleared with 10 μl protein G-conjugated Dynabeads (Invitrogen) for 1 hr with rotation. Cleared lysates were incubated with 5 μg of rat anti-α4β1 (PS/2) antibody overnight, followed by adding 25 μl of protein G-conjugated Dynabeads for 3 h with rotation. Beads were washed three times with 1 ml cold PBS containing protease inhibitor cocktail. Protein precipitates were electrophoresed on 10% SDS-PAGE gels and immunoblotted with anti-integrin α4 (C-20, Santa Cruz Biotechnology), anti-talin (Clone TD77, Chemicon) or anti-paxillin (H-114, Santa Cruz Biotechnology) antibodies. Immune complexes were visualized using an enhanced chemiluminescence detection kit (Pierce).
BM cells (comprised of 80% CD11b+Gr1+ cells) from WT or α4Y991A mice were isolated as described above and treated with either DMEM or TCM for 30 min at 37° C. […]

B1: paxillin (murine, endogenous in bone marrow derived myeloid cells) (other, mouse, UniProt Q8VI36 1-591, looked up)
chain: MDDLDALLADLESTTSHISKRPVFLSEEPPYSYPTGNHTYQEIAVPPPVPPPPSSEALNGTVLDPLDQWQPSGSRYAHQQPPSPLPVYSSSAKNSSASNTQDGVGSLCSRAGEEEHVYSFPNKQKSAEPSPTVMSSSLGSNLSELDRLLLELNAVQHSPPGFPADEAESSPPLPGALSPLYGIPENNTPLGGKAGPLVKEKPKRNGGRGLEDVRPSVESLLDELESSVPSPVPAITVNQGEMSSPQRVTSSQQQTRISASSATRELDELMASLSDFKMQGLEQRVDGERPWAAGWPPSSRQSSPEGQDEGGFMAQGKTGSSSPPGGLSKPGSQLDSMLGSLQSDLNKLGVATVAKGVCGACKKPIAGQVVTAMGKTWHPEHFVCTHCQEEIGSRNFFERDGQPYCEKDYHSLFSPRCYYCNGPILDKVVTALDRTWHPEHFFCAQCGAFFGPEGFHEKDGKAYCRKDYFDMFAPKCGGCARAILENYISALNTLWHPECFVCRECFTPFVNGSFFEHDGQPYCEVHYHERRGSLCSGCQKPITGRCITAMAKKFHPEHFVCAFCLKQLNKGTFKEQNDKPYCQSCFVKLFC
notes: Detected by immunoblot with anti-paxillin H-114
B1: no binding.
